These results are taken from article PMC9098882.

The chains behind the UniProt entries cited, without tags or fusion partners. Residues count along the entry.
UniProt Q8WUM4: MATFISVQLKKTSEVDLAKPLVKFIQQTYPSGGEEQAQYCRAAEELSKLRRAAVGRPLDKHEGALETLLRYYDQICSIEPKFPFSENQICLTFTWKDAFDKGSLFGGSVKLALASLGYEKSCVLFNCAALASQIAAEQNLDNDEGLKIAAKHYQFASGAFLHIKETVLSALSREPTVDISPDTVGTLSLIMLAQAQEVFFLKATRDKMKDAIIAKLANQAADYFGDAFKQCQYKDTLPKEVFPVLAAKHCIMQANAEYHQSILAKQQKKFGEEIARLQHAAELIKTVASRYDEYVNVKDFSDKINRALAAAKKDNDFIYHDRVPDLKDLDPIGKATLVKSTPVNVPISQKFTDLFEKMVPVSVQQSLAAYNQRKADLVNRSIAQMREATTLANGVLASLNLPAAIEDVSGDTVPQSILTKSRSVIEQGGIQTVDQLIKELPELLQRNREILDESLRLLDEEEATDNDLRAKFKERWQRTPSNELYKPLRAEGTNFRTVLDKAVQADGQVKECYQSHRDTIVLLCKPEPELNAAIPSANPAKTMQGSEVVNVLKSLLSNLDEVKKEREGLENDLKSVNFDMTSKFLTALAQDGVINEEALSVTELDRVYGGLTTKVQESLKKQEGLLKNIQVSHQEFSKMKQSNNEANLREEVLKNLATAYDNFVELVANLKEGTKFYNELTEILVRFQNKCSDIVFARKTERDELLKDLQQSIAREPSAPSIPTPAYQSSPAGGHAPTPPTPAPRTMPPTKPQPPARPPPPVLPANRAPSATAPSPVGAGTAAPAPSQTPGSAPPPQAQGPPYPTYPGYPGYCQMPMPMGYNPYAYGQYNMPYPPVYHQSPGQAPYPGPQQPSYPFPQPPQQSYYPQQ
UniProt P02769, residues 25-607: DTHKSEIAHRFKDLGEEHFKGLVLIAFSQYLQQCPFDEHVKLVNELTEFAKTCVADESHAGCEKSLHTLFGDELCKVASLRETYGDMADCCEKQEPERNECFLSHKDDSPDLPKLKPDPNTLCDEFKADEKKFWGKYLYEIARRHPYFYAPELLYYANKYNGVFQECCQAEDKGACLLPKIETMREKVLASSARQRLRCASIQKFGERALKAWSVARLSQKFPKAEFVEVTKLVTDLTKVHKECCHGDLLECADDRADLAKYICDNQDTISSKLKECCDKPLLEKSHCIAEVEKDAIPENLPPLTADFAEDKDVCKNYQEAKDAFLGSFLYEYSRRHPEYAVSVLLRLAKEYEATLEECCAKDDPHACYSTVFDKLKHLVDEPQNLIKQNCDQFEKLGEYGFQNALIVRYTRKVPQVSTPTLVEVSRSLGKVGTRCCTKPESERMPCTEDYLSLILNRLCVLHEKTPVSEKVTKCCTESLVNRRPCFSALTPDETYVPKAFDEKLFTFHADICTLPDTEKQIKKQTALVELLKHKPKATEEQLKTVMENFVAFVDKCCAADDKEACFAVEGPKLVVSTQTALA

Results are given in words; binding and its absence hold for the method and conditions named.

The target of the experiment is GST-full length Alix (UniProt Q8WUM4). As to the kind of experiment: co-sedimentation; 15–45% glycerol gradient ultracentrifugation with micro-fractionation; 20 mM Tris–HCl pH 7.6, 150 mM NaCl; 55,000 r.p.m., 8 h (also 12 h), 4 °C; fractions on SDS gels stained with SYPRO Ruby, densitometry; both purified.

Take “Albumin, 66 kDa (from UniProt P02769 25-607)”: the binding result is “no binding”.
